Like-named read-outs stand apart in the source and are kept apart here. Results are given in words; binding and its absence hold for the method and conditions named. Binding seen in cells or lysates may run through a third protein. Some entries that bind do so weakly or less than the wild type.

Sequences of proteins named here, by UniProt entry; tags and fusion partners are left off.
UniProt Q15797: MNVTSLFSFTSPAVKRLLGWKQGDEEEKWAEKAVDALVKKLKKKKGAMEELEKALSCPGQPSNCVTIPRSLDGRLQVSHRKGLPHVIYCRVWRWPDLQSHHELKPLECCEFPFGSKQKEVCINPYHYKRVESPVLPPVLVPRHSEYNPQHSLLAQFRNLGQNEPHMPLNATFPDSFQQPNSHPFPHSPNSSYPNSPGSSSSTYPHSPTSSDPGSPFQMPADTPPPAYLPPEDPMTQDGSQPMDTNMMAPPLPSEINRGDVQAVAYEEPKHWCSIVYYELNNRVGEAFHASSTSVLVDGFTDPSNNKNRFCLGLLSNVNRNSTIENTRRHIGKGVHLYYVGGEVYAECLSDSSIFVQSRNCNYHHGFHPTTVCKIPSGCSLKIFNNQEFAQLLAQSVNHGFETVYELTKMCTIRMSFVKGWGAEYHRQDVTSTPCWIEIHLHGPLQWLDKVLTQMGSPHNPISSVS
UniProt Q13485: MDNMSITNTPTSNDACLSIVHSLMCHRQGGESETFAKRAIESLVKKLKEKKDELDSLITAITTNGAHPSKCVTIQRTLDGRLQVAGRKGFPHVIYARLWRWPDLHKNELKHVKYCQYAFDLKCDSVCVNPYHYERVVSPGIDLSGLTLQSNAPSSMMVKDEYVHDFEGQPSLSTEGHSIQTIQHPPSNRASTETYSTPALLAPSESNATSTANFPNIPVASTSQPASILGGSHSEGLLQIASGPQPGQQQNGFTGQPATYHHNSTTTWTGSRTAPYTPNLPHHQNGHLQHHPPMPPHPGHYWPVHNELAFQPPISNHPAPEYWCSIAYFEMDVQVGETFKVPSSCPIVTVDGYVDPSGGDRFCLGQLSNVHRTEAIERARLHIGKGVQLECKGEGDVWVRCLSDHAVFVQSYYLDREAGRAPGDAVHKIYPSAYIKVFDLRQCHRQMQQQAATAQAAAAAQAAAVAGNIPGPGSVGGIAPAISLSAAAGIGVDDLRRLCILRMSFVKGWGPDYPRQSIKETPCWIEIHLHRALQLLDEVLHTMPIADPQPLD

In experiment [1] the target is SMAD1, endogenous in HepG2 cells (human (endogenous in HepG2)) (UniProt Q15797). The experiment can be described thus: co-IP; endogenous proteins in HepG2 cells treated with BMP6 (20 nM) or metformin (2 mM) for 24 h; Western blot; which protein was precipitated is not told.
For experiment [2] the target is unchanged. Described as above. The source holds these as a separate data set.

For “SMAD4, endogenous in HepG2 cells (from UniProt Q13485 1-552)”, in experiment [1], the binding result is listed as “binds”.

B1: SHP, endogenous in HepG2 cells (protein, UniProt Q15466 1-257)
chain: MSTSQPGACPCQGAASRPAILYALLSSSLKAVPRPRSRCLCRQHRPVQLCAPHRTCREALDVLAKTVAFLRNLPSFWQLPPQDQRRLLQGCWGPLFLLGLAQDAVTFEVAEAPVPSILKKILLEEPSSSGGSGQLPDRPQPSLAAVQWLQCCLESFWSLELSPKEYACLKGTILFNPDVPGLQAASHIGHLQQEAHWVLCEVLEPWCPAAQGRLTRVLLTASTLKSIPTSLLGDLFFRPIIGDVDIAGLLGDMLLLR
In the case of B1, the binding entry in experiment [2] was “binds”.

The values above are taken from PMC5043349.
